# Among all 140,000 compounds or so, about 4,300 (3.1%) were called active. Inconclusive results, whose numbers are uncertain, are shown with a selection of clear calls.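 Rule for the calls: active = readout at or below -70, meaning at least 70% loss of cells showing the perinucleolar compartment, a nuclear body marking cancer cells; inconclusive = readout between -30 and a set limit; inactive = the rest.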
# Assay: High Content Assay for Compounds that inhibit the Assembly of the Perinucleolar Compartment;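 note: plate controls were DMSO wells for no effect and camptothecin positive control wells for full effect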
# Details: PC3M PTB-GFP, PNC prevalence imaging, 16 h; at 10 µM; stronger effect = lower value
# How it was run: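 Read-out is percentage of cells bearing a perinucleolar compartment, from automated 20x imaging of fixed, Hoechst-stained PC3M PTB-GFP cells. Cells were seeded 4 h, then exposed 16 h to compound (23 nl of library stock) in duplicate plates.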
row,SMILES,"activity change (PNC), negative = inhibition"
1,O=C1c2cccc3cccc(c23)C(=O)N1c1nncs1,inconclusive: -41.8%
2,NC1=NC(c2cccc(O)c2)n2c(nc3ccccc32)N1 (stereo not given),inactive: -20.2%
3,CCCOc1ccc(OCCN2CCCC(C)C2)cc1 (stereo not given),inactive: 8.97%
4,O=C(CP(=O)(c1ccccc1)c1ccccc1)N1CCCCC1,inconclusive: -40.3%
5,CC(C)CC(NC(=O)C1CCCCC1)C(=O)NCc1ccccn1 (stereo not given),inconclusive: -56.5%
6,O=c1[nH]c(CN2CCN(Cc3ccc4c(c3)OCO4)CC2)nc2sc3c(c12)CCC3,inconclusive: -56.4%
7,CCOc1ccc2nc(NC(=O)CCC(=O)c3cccs3)sc2c1,inconclusive: -42.3%
8,O=c1c2c3c(sc2n2cnnc2n1C1CCCCC1)CCC3,inconclusive: -35.2%
9,N#Cc1ccc(COC(=O)CSc2nnc(N)s2)cc1,inconclusive: -40.2%
10,COC(=O)[C@H](CCSC)NC(=O)N1CCN(c2cccc(C(F)(F)F)c2)CC1,inactive: 12.4%
11,Cc1c(Cl)cccc1NC(=S)NCCC(c1ccccc1)c1ccccc1,inconclusive: -30.7%
12,CC12CCC(C(=O)N3CCCc4ccccc43)(CC1=O)C2(C)C (stereo not given),inconclusive: -36.5%
13,COc1ccccc1N(CC(=O)Nc1ccc2c(c1)OCO2)S(=O)(=O)c1ccccc1,inactive: 2.2%
14,O=C(CN1CC[n+]2c(-c3cccs3)csc21)c1ccc(Br)cc1,inconclusive: -70.5%
15,Cc1ccc(C(=O)OC2CCOC2=O)cc1NC(=O)c1ccco1 (stereo not given),inactive: -1.13%
16,O=C(NC(Cc1c[nH]c2ccccc12)C(=O)Nc1ccc(OC(F)(F)F)cc1)c1cccs1 (stereo not given),active: -113%
17,CC1CN(c2cc(-c3ccccc3)c3ccccc3n2)CC(C)O1 (stereo not given),inconclusive: -50.4%
18,CC(CC(=O)Nc1ccc2c(c1)OCCO2)c1ccccc1 (stereo not given),inconclusive: -78.8%
19,C=CCn1c(SCc2csc(C)n2)nc2scc(-c3ccc(C)o3)c2c1=O,active: -99.5%
20,Brc1ccc(OCCOCCN2CCOCC2)cc1,inactive: 14.7%
21,COc1ccc(NC(=S)NCc2ccc(S(N)(=O)=O)cc2)c(OC)c1,inactive: -4.33%
22,COc1cccc(N=Cc2c[nH][nH]c2=O)c1,inconclusive: -39%
23,Cc1ccc(-c2nc3cnccn3c2Nc2ccc3c(c2)OCO3)cc1,inconclusive: -40%

# Shown as tab-separated lines: part of the list above.
row	SMILES	activity change (PNC), negative = inhibition
13	COc1ccccc1N(CC(=O)Nc1ccc2c(c1)OCO2)S(=O)(=O)c1ccccc1	inactive: 2.2%
14	O=C(CN1CC[n+]2c(-c3cccs3)csc21)c1ccc(Br)cc1	inconclusive: -70.5%

# Additional entries follow.

row,SMILES,"activity change (PNC), negative = inhibition"
1,COc1ccc(-c2[nH]ncc2C=O)cc1,inactive: 28.4%
2,COCCn1c(SCC(=O)NC(=O)NC(C)C)nc2ccccc21,inconclusive: -45.7%
3,Cc1ccc2c(c1)c1c(n2CC(O)CNC(C)(C)C)CCCC1 (stereo not given),inconclusive: -69.1%
4,CCN(c1ccccc1)S(=O)(=O)c1ccc(F)cc1C,inconclusive: -35.1%
5,CCOc1ccccc1N1CCN(c2nc(N)c(C#N)c(CC#N)c2C#N)CC1,inconclusive: -60.4%
6,NC(=O)c1c(NC(=O)CSc2nnc(-c3ccco3)n2-c2ccccc2)sc2c1CCC2,inactive: -9.98%
7,COC(=O)CN(C#N)c1nc(SC)nc(N(C)C)n1,inconclusive: -49.5%
8,Cc1ccc(-c2cc(=O)c3ccccc3[nH]2)cc1,inactive: 27.2%
9,O=C(Nc1ccncc1)c1cn(-c2ccccc2)nc1-c1cccs1,inconclusive: -36.5%
10,CN1C(=O)NC(c2ccccc2)C2=C1CN(CCc1ccccc1)C2=O (stereo not given),inconclusive: -31.7%
11,CCOc1ccc(OCCN2CCCCC2)cc1,active: -87.6%
12,N#CC(C#N)C(c1ccsc1)c1c(-c2ccccc2)[nH][nH]c1=O (stereo not given),inconclusive: -44%
13,CCC1C/C(=C\c2cccnc2)C(=O)/C(=C/c2cccnc2)C1 (stereo not given),active: -125%
14,O=C([C@H](Cc1ccccc1)NS(=O)(=O)c1ccc(Cl)cc1)N1CC[C@@]2(O)CCCC[C@H]2C1,inactive: -15.9%
15,Cc1ccc(N(C(=O)CS(=O)CC(=O)Nc2ccc(F)cc2)C(C(=O)NC2CCCCC2)c2ccco2)cc1 (stereo not given),inconclusive: -39.4%
16,CCn1c(SCC(=O)NCC2CCCO2)nc2c(c1=O)SC(C)C2 (stereo not given),inactive: 10.6%
17,N#C/C(=C\C1=C(N2CCOCC2)C(=C\c2ccccc2)/CC1)C(=O)Nc1ccccc1F,inconclusive: -73.1%
18,Cc1cc(C)c(S(=O)(=O)Nc2ccc(O)c(Sc3ncn[nH]3)c2)c(C)c1,inactive: -29.1%
19,COc1ccc(/C=N\NC(=O)c2c(C)nc3ccc(Br)cn23)cc1,inconclusive: -59.1%
20,CC(C)(C(N)=O)N1CCN(c2ncc(C(F)(F)F)cc2Cl)CC1,inconclusive: -44.7%
21,COc1ccc(CNC(=O)C2CCCN(c3nc4ccccc4o3)C2)c(OC)c1 (stereo not given),inconclusive: -35.6%
22,CCC1CCc2c(sc(NC(=O)C3c4ccccc4Oc4ccccc43)c2C(N)=O)C1 (stereo not given),active: -94.9%
